This note sets out measurements from article PMC12016936.

The chains behind the UniProt entries cited, without tags or fusion partners.
UniProt O43791: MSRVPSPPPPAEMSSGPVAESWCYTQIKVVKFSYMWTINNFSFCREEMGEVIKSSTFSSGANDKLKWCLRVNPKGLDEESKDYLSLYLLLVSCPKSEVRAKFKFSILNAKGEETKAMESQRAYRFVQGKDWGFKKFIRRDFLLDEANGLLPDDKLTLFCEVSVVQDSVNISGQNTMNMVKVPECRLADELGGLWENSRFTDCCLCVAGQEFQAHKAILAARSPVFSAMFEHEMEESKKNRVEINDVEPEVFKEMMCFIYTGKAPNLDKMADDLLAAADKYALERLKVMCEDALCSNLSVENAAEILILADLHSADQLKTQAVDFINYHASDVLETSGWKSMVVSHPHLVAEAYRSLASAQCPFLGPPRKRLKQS
UniProt O75925: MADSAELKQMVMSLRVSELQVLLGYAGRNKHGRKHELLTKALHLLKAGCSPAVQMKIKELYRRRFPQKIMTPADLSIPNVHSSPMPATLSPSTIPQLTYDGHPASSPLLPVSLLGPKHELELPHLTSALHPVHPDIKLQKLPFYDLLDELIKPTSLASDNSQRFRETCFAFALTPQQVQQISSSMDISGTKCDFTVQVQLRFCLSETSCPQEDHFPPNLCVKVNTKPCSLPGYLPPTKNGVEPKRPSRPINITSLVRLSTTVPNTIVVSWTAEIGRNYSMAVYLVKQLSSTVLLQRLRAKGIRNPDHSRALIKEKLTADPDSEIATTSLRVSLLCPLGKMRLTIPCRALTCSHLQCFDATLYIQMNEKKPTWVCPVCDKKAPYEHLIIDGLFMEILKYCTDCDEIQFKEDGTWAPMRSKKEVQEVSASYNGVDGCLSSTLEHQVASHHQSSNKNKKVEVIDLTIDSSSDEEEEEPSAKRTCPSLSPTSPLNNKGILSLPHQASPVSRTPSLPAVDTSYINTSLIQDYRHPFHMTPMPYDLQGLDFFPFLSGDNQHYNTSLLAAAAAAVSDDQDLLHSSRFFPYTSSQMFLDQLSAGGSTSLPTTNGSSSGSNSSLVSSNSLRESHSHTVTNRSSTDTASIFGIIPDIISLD
UniProt Q12888: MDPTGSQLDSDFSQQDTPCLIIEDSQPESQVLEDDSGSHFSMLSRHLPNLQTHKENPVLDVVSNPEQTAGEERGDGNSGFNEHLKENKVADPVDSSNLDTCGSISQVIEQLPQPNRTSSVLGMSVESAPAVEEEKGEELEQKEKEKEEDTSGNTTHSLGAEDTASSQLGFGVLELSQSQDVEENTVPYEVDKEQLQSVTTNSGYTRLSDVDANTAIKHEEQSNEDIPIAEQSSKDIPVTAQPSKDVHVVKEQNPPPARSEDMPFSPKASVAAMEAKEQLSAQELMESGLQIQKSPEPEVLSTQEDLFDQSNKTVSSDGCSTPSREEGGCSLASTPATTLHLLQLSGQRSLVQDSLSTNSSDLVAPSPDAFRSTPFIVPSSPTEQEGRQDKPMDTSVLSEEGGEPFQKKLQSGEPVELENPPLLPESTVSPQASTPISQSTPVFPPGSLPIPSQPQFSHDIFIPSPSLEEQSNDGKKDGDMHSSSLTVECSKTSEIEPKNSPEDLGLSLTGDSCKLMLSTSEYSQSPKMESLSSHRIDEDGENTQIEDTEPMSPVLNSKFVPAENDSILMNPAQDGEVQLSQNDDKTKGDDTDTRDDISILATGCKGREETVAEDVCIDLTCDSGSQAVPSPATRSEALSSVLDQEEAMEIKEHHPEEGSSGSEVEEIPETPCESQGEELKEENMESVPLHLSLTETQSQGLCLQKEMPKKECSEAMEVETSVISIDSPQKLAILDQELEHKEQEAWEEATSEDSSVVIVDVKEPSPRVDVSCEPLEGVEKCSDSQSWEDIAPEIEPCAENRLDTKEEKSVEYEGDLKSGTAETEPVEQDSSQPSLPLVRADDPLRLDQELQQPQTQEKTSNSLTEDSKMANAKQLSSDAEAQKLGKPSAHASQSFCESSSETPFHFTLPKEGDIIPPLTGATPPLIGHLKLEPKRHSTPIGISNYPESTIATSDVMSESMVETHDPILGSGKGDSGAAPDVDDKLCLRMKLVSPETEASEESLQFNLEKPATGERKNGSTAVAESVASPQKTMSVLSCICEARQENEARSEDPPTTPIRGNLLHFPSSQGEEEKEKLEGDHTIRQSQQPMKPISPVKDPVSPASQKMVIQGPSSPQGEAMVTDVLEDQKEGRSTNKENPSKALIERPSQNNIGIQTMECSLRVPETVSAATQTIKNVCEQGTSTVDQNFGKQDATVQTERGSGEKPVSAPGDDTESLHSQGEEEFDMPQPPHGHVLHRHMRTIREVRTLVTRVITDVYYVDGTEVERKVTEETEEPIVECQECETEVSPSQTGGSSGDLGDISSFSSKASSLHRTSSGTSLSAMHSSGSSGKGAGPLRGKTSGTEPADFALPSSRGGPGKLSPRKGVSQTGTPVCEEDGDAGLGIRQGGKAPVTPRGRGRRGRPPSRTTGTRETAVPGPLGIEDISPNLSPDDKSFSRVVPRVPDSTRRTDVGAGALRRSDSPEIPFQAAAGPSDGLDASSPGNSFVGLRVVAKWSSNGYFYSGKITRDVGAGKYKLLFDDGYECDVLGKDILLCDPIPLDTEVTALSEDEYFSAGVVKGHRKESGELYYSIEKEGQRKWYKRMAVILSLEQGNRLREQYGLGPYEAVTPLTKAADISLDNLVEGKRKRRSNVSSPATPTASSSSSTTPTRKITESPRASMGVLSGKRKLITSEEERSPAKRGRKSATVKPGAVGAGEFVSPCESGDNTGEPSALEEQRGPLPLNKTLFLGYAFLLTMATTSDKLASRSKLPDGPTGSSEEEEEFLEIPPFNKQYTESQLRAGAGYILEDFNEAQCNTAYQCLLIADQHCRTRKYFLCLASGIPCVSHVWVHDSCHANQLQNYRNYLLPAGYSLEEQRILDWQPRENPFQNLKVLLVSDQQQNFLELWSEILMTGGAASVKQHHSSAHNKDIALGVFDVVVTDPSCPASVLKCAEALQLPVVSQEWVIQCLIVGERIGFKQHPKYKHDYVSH

This assay has as its target 3×FLAG-SPOP (UniProt O43791). Description: affinity purification with mass spectrometry; immunoprecipitation of 3×FLAG-SPOP complexes from stable PC-3 cells before and after olaparib treatment (also after PIAS1 knockdown), mass spectrometry.

Results are given in words; binding and its absence hold for the method and conditions named. Binding seen in cells or lysates may run through a third protein. Here binding means that the protein was enriched with, or labelled near, the bait; the list need not be complete.

With “PIAS1 (endogenous) (from UniProt O75925 1-651)”, the binding result was “binds”.

For the substance “p53-binding protein 1 (from UniProt Q12888 1-1972)”, the binding result is recorded as “binds”.
